These are yes or no findings as the source states them, for the method shown. For part of these data: Binding seen in cells or lysates may run through a third protein. Some entries that bind do so weakly or less than the wild type. For part of these data: Tags and fused reporters may be left off the sequences shown.
Tests used:
overexpressed gp78 = overexpressed gp78 (UniProt Q9UKV5); test: co-IP; sequential immunoprecipitation: extract of cells expressing FLAG-USP13 and untagged gp78, first FLAG beads, elution with FLAG peptide (0.2 mg/ml), then anti-gp78 or control antibody
[1] = target: T1, endogenous USP13 (human (endogenous in HEK293)) (UniProt Q92995); test: co-IP; whole cell extract, immunoprecipitation with control or anti-USP13 antibodies; all proteins endogenous; immunoblotting
T1 sequence: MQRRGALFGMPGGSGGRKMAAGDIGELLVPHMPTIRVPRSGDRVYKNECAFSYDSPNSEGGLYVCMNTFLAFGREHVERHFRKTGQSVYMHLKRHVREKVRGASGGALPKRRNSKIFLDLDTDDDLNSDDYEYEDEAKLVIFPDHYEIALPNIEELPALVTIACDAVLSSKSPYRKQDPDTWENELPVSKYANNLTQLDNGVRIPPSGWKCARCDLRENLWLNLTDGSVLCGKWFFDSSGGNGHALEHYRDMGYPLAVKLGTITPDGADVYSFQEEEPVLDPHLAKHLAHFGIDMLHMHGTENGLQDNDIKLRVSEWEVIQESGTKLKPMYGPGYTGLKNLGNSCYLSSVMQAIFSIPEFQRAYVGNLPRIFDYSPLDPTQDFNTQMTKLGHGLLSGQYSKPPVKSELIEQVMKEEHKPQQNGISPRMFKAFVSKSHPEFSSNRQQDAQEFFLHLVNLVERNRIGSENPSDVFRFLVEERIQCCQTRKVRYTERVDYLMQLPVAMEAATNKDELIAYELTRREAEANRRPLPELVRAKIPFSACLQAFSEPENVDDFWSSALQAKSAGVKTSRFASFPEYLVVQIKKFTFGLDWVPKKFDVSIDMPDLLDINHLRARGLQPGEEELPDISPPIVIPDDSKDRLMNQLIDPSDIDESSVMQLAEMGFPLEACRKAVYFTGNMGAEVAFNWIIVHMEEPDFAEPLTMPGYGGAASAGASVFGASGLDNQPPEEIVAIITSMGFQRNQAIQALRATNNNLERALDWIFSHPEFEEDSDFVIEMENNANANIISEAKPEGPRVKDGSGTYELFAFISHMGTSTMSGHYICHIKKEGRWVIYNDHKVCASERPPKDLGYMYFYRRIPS

Sequences of proteins named here, by UniProt entry; tags and fusion partners are left off.
UniProt Q9UKV5: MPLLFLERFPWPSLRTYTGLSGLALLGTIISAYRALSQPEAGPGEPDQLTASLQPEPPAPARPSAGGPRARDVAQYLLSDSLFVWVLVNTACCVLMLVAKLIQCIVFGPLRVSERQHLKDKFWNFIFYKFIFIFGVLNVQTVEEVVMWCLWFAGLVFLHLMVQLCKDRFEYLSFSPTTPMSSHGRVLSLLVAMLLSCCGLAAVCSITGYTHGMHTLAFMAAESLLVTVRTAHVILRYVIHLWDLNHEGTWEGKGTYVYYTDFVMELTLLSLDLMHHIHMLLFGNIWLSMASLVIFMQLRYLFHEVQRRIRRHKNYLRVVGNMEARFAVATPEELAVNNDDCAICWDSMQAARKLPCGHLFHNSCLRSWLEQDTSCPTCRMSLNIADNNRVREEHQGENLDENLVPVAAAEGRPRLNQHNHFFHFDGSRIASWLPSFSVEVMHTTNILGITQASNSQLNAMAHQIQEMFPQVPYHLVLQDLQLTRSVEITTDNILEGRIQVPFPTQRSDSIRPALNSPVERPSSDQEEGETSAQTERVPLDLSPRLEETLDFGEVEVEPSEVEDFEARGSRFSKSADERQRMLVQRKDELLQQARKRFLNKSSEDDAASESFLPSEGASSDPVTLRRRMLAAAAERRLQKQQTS
UniProt P45974: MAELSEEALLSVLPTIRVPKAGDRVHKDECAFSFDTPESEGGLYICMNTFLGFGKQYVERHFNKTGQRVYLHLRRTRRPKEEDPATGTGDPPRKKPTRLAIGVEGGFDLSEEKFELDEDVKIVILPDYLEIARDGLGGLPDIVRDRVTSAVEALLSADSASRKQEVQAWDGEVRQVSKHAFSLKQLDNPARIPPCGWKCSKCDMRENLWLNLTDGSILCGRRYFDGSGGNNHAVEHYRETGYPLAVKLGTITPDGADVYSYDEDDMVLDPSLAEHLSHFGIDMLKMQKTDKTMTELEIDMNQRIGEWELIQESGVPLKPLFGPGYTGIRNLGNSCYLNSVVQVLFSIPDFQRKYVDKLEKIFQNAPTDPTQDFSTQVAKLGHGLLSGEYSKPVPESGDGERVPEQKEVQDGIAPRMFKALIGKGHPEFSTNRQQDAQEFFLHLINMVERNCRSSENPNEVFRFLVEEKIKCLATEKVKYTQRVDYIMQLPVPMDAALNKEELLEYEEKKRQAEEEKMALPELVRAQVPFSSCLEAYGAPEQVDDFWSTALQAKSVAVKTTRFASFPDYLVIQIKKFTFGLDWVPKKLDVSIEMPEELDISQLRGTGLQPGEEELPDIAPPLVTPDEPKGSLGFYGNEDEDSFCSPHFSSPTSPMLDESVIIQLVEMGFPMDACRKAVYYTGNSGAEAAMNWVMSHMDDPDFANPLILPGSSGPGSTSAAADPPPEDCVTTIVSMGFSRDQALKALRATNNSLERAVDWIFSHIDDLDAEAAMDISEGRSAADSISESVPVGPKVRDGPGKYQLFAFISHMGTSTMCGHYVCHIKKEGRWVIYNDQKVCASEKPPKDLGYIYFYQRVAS
UniProt P46379: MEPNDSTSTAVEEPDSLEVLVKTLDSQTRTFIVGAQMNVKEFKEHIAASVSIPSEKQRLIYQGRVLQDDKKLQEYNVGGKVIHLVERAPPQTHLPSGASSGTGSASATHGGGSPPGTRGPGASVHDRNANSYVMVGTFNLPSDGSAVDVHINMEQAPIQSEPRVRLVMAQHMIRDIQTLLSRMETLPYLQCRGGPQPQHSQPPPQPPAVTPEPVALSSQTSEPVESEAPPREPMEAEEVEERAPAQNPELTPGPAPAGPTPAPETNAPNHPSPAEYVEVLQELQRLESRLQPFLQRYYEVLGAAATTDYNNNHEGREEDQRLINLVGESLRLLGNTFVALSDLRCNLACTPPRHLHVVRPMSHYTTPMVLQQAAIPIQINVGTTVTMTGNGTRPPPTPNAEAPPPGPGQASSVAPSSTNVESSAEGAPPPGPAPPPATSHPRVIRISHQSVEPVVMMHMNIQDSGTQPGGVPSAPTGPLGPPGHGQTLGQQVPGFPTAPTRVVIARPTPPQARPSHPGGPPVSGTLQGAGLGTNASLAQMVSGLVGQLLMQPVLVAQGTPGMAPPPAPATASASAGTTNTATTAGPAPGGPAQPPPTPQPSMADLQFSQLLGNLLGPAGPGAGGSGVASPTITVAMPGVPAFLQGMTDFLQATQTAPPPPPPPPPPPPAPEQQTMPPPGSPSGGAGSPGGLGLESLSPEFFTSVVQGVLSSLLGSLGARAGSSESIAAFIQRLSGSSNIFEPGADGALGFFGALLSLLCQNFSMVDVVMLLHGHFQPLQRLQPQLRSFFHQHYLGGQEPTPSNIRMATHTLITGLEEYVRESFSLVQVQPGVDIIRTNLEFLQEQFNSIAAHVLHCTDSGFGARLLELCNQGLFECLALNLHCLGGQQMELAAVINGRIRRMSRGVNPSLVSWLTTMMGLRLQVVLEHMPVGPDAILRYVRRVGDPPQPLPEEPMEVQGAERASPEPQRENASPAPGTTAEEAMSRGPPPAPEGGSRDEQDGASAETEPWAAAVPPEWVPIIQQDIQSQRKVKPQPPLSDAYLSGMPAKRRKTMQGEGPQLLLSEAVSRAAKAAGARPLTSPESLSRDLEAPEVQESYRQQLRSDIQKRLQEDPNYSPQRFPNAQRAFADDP
UniProt P35998: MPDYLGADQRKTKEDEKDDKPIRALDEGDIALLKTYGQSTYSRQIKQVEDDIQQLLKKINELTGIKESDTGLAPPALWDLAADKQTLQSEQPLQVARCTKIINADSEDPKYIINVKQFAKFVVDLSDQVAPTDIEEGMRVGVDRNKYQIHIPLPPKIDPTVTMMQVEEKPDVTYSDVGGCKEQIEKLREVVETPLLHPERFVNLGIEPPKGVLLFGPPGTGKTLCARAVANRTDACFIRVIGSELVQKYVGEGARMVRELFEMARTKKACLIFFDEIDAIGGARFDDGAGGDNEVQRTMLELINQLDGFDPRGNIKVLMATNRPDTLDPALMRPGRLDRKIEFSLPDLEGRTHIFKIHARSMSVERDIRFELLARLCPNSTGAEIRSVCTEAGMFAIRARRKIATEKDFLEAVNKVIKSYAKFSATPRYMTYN
UniProt P25786: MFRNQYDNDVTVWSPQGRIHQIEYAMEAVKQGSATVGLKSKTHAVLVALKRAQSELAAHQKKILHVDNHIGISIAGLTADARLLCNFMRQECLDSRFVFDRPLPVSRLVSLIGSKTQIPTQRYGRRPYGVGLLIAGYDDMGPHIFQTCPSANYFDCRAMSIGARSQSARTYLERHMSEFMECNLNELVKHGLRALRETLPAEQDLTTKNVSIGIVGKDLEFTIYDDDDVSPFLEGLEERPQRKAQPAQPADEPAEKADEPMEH

GST-USP13 = target: T2, GST-USP13 (UniProt Q92995); test: pull-down; glutathione beads with purified GST-tagged protein incubated with whole cell extracts (control, gp78-expressing, gp78 knock-down or knock-out cells; depletion of gp78 reduced the USP13-p97 interaction threefold to fourfold and did not affect USP13-Bag6); immunoblotting; only the target purified
T2 sequence: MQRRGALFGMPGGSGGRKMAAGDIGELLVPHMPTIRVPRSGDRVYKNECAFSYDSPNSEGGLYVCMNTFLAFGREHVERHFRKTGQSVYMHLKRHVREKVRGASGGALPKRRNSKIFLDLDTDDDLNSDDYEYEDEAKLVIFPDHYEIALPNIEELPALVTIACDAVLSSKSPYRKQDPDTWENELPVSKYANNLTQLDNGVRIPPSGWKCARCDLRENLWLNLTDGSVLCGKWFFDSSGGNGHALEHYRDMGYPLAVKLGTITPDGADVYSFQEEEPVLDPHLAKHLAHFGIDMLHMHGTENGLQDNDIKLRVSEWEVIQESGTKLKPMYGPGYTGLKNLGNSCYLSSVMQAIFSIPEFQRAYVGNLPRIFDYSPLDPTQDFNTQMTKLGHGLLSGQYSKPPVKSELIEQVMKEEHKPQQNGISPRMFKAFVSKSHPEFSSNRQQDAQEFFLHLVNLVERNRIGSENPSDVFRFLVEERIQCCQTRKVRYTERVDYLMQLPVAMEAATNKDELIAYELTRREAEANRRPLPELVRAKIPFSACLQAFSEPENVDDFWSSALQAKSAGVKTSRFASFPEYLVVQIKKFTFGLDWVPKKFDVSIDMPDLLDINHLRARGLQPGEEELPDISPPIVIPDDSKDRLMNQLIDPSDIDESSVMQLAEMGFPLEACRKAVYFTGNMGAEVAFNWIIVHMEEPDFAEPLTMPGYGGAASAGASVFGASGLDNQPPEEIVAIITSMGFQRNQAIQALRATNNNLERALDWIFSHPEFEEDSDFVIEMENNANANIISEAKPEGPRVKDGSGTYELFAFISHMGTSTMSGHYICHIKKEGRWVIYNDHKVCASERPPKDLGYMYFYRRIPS

FLAG-USP13 = target: T3, FLAG-USP13 (UniProt Q92995); test: co-IP; extracts of transfected cells (FLAG-tagged DUB or chimera, in part with gp78), immunoprecipitation with FLAG beads; NP40 lysis buffer; immunoblotting
T3 sequence: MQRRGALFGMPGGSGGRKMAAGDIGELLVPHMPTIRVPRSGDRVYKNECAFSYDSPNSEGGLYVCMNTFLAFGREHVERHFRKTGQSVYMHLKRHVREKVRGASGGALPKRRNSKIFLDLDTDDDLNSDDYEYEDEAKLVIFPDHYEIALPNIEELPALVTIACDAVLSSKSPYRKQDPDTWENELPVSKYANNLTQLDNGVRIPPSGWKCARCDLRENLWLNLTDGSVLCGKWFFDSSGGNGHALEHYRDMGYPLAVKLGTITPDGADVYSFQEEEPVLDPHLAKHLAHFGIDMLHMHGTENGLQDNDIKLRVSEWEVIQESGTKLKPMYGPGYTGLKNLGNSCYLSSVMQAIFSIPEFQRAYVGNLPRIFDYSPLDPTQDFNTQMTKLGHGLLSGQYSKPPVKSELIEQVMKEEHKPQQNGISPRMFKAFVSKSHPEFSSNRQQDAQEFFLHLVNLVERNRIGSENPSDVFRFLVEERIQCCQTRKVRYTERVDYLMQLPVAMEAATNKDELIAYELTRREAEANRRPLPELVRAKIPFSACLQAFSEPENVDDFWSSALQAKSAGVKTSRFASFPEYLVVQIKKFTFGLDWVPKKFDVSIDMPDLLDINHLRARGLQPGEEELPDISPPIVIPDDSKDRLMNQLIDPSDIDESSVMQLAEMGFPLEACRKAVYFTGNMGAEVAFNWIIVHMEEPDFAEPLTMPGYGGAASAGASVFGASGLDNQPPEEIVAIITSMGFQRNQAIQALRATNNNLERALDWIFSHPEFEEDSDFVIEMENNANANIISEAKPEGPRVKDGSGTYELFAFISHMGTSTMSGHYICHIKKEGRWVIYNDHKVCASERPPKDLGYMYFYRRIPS

FLAG-USP13 C345S = target: T4, FLAG-USP13 C345S (UniProt Q92995); test: as above
T4 sequence: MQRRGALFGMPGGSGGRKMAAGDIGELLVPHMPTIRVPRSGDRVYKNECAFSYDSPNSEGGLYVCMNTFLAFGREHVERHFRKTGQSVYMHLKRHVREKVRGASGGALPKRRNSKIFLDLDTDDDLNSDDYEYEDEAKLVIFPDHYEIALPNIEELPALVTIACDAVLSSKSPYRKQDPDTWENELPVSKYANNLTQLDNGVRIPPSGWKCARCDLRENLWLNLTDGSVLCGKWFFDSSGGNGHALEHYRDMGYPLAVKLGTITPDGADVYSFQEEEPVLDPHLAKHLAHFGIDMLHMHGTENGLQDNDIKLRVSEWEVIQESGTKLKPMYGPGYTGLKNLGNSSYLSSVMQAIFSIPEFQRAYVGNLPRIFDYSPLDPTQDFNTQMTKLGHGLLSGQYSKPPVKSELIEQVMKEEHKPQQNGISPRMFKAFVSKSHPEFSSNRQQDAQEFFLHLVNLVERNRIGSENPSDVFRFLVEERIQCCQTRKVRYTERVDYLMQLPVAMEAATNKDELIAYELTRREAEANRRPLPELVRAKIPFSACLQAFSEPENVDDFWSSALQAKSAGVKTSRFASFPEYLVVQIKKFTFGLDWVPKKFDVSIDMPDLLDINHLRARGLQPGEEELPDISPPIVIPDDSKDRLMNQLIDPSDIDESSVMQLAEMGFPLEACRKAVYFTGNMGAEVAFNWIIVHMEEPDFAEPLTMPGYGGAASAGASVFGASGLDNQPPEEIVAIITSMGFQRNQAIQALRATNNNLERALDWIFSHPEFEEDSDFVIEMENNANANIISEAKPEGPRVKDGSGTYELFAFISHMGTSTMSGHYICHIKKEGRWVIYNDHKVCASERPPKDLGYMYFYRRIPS

GST-USP5 = GST-USP5 (UniProt P45974); test: pull-down; purified GST-tagged protein immobilised on glutathione beads and incubated with recombinant or purified protein; immunoblotting; both purified

Substance	binding (GST-USP13)	binding (FLAG-USP13 C345S)	other results
endogenous Bag6 (from UniProt P46379 1-1132)	binds	binds	binding (overexpressed gp78): binds; binding [1]: binds; binding (FLAG-USP13): binds
endogenous gp78 (from UniProt Q9UKV5 1-643) (enzyme)	–	binds	–
MMS1 (from UniProt P35998 1-433)	binds	–	–
α6 (from UniProt P25786 1-263)	binds	–	–
recombinant p97 (from UniProt P55072 1-806) (enzyme)	–	–	binding (GST-USP5): no binding
